Measurements published in PubChem BioAssay (NCATS).
Inconclusive means that the source gave no clear call. Such entries were picked first, then a sample of the others. Where the call is inconclusive, the potency comes from a doubtful curve fit. Active and inactive are the calls of the source. Calls follow the shape of the dose curve; as a rule, active = well fitted curve in the direction sought with a large enough effect; inconclusive = small, poorly fitted or top-dose-only effect, or another doubt; inactive = no such curve, though single readings can be large; an effect the other way counts as inactive or inconclusive.

What was measured:
[1] = Quantitative High-Throughput drug screen in 47 multiple myeloma cell lines against the NCATS MIPE library collection: KMS20_JCRB cell viability assay (AID 1918973); details: CellTiter-Glo ATP, 48 h; viability (% of DMSO): at 45.8 µM (top of the series); also: nearly all actives have a fitted effect of over 45% in size
How it was run: (§1)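 Relative luminescence from CellTiter-Glo served as the viability signal, referenced to DMSO-treated (100%) and cell-free medium (0%) controls. Treatment lasted 48 hours at 37C with 500 cells per well.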

[2] = Quantitative High-Throughput drug screen in 47 multiple myeloma cell lines against the NCATS MIPE library collection: KMS26_JCRB cell viability assay (AID 1918975); details: KMS26 myeloma cells viability, CellTiter-Glo ATP, 48 h; viability (% of DMSO): at 45.8 µM (top of the series); also: nearly all actives have a fitted effect of over 45% in size
How it was run: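 Viability readout: CellTiter-Glo luminescence following 5 min room-temperature incubation with reagent. Prior exposure: 48 h, 37C, humidified 5% CO2, 500 cells per well.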

[3] = Quantitative High-Throughput drug screen in 47 multiple myeloma cell lines against the NCATS MIPE library collection: MMM1_PLB cell viability assay (AID 1918976); also: nearly all actives have a fitted effect of over 35% in size
How it was run: (§2)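 Viability after 48 h drug exposure was measured as ATP-dependent luminescence. Cells, 500 per well, sat at 37 °C under 5% CO2; DMSO wells set 100%, media-only wells 0%.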

[4] = Quantitative High-Throughput drug screen in 47 multiple myeloma cell lines against the NCATS MIPE library collection: MOLP8_DSMZ cell viability assay (AID 1918977); details: MOLP8 myeloma viability, CellTiter-Glo ATP luminescence, 48 h; viability (% of control): at 45.8 µM (top of the series); also: nearly all actives have a fitted effect of over 45% in size
How it was run: as §2

[5] = Quantitative High-Throughput drug screen in 47 multiple myeloma cell lines against the NCATS MIPE library collection: MM1S_ATCC cell viability assay (AID 1918980); details: MM1S myeloma viability, CellTiter-Glo ATP luminescence, 48 h; viability (% of control): at 45.8 µM (top of the series); also: nearly all actives have a fitted effect of over 45% in size
How it was run: as §2

[6] = Quantitative High-Throughput drug screen in 47 multiple myeloma cell lines against the NCATS MIPE library collection: NCIH929_DSMZ cell viability assay (AID 1918978); details: NCI-H929 myeloma viability, CellTiter-Glo ATP, 48 h; series mostly up to 45.8 µM; also: nearly all actives have a fitted effect of over 35% in size
How it was run: as §2

[7] = Quantitative High-Throughput drug screen in 47 multiple myeloma cell lines against the NCATS MIPE library collection: OCIMY1_PLB cell viability assay (AID 1918979); also: nearly all actives have a fitted effect of over 35% in size
How it was run: as §2

[8] = Quantitative High-Throughput drug screen in 47 multiple myeloma cell lines against the NCATS MIPE library collection: KMS21BM_JCRB cell viability assay (AID 1918974); details: ATP luminescence, 48 h; viability: at 45.8 µM (top of the series) unless noted
How it was run: as §1
Potency is read from the fitted curve at half-maximal effect.

Structure (SMILES)	Potency [1]	Potency [2]	Potency [3]	Potency [4]	Potency [5]	Potency [6]	Potency [7]	Potency [8]
COc1cc2nc(N3CCN(C(=O)C4CCCO4)CC3)nc(N)c2cc1OC (configuration not stated)	inconclusive: 20.9 µM [cytotoxic, single point]	inconclusive: 37.2 µM [cytotoxic, single point]	inconclusive: 0.0066 µM [rising, full curve, poor fit]	inactive	inactive			
O[C@@H](COc1cccc2ncccc12)CN1CCN(C2c3ccccc3[C@@H]3[C@H](c4ccccc42)C3(F)F)CC1 (some centres not stated)	inconclusive: 13.2 µM [cytotoxic, partial curve, poor fit]			active: 23.5 µM		active: 11.8 µM	inconclusive: 20.9 µM [cytotoxic, partial curve]	
Oc1ccc(C2CCN(c3ccnc4ccccc34)CC2)cc1O				inconclusive: 20.9 µM [cytotoxic, partial curve, poor fit]	inconclusive: 8.33 µM [cytotoxic, partial curve]	active: 18.7 µM		active: 23.5 µM
CC(=O)CC(c1ccccc1)c1c(O)c2ccccc2oc1=O (configuration not stated)	inactive		inconclusive: 0.0418 µM [rising, full curve, poor fit]	inconclusive: 0.0023 µM [rising, full curve, poor fit]	inconclusive: 33.2 µM [cytotoxic, single point]			
COC(=O)Nc1ccc(-c2nc(N3CCOCC3)c3cnn(C4CCN(C(=O)OC)CC4)c3n2)cc1	active: 0.0148 µM				active: 0.0066 µM			active: 0.0526 µM
O=c1cc(CN2CCOCC2)occ1OCCCCCSc1ccnc2cc(C(F)(F)F)ccc12	inconclusive: 1.18 µM [cytotoxic, full curve, poor fit]			inconclusive: 6.62 µM [cytotoxic, full curve, poor fit]	inconclusive: 20.9 µM [cytotoxic, partial curve, poor fit]		inconclusive: 23.5 µM [cytotoxic, single point]	
CCCCc1ccc2nc(NC(=O)OC)[nH]c2c1	inconclusive: 0.0026 µM [cytotoxic, full curve, poor fit]			inconclusive: 7.43 µM [cytotoxic, partial curve]	inconclusive: 0.0296 µM [cytotoxic, full curve]			
CC(C)(O)c1cc2nc(-c3cnc(N)nc3)nc(N3CCOCC3)c2s1	active: 0.148 µM			active: 0.0296 µM		active: 0.0148 µM	active: 0.0296 µM	active: 0.59 µM
c1ccc2[nH]c(-c3cscn3)nc2c1	inactive	inconclusive: 0.0526 µM [rising, full curve, poor fit]	inconclusive: 0.0026 µM [rising, full curve, poor fit]	inactive	inconclusive: 0.001 µM	inactive	inconclusive: 0.0019 µM [rising, full curve, poor fit]	
CC1=C(CO)C(=O)O[C@@H]([C@@H](C)[C@H]2CC[C@H]3[C@@H]4C[C@H]5O[C@]56[C@@H](O)C=CC(=O)[C@]6(C)[C@@H]4CC[C@]23C)C1	active: 0.148 µM			active: 0.132 µM				inconclusive: 3.32 µM [rising, full curve, poor fit]
N#Cc1ccc(NC(=O)Nc2ccccc2Br)c2n[nH]nc12	inactive	inconclusive: 11.8 µM [rising, single point]	inconclusive: 0.001 µM	inconclusive: 1.32 µM [rising, full curve, poor fit]			inactive	
NS(=O)(=O)c1cccc2c1C(=O)c1cccc(O)c1C2=O	active: 0.132 µM			active: 0.296 µM			active: 1.18 µM	active: 0.148 µM
O=C(Nc1ccc(OC(F)(F)F)cc1)c1sccc1NCc1ccnc2ccccc12		active: 18.7 µM	active: 16.6 µM	inconclusive: 18.7 µM [cytotoxic, partial curve]				inconclusive: 3.32 µM [cytotoxic, full curve, poor fit]
CC(=O)Oc1ccccc1C(=O)Nc1ncc([N+](=O)[O-])s1	active: 8.55 µM		active: 10.8 µM	active: 34 µM			active: 42.9 µM	active: 17.1 µM
CCc1ccc(OCc2ccccc2C(=O)Nc2ccc3nc(C)cc(N)c3c2)cc1		active: 6.62 µM		active: 7.43 µM		active: 1.05 µM	active: 8.33 µM	inconclusive: 2.96 µM [cytotoxic, full curve, poor fit]
O=C1C(Cl)=C(NCCN2CCOCC2)C(=O)c2ncccc21				active: 2.96 µM				inconclusive: 3.72 µM [cytotoxic, full curve, poor fit]
CCCCCCCCOc1ccccc1C(=O)Nc1ccc(C(=O)OCC[N+](C)(CC)CC)cc1	active: 16.6 µM		active: 16.6 µM		inconclusive: 29.6 µM [cytotoxic, single point]		inconclusive: 20.9 µM [cytotoxic, partial curve, poor fit]	inconclusive: 18.7 µM [rising, single point]
COc1ccccc1OCC(O)CN1CCN(CC(=O)Nc2c(C)cccc2C)CC1 (configuration not stated)	inactive	inactive	inconclusive: 0.0074 µM [rising, full curve]	inconclusive: 6.62 µM [rising, partial curve, poor fit]	inconclusive: 0.059 µM [rising, full curve, poor fit]	inconclusive: 37.2 µM [cytotoxic, single point]	inconclusive: 0.0743 µM [rising, full curve]	
CC1(C)CC(O)CC(C)(C)N1[O]	inconclusive: 0.0019 µM [rising, full curve, poor fit]	inactive		inconclusive: 41.8 µM [rising, single point]	inconclusive: 0.332 µM [rising, full curve, poor fit]	inactive		
O=C(NCC1CCCCN1)c1cc(OCC(F)(F)F)ccc1OCC(F)(F)F (configuration not stated)		inconclusive: 0.001 µM [cytotoxic]	inconclusive: 0.0023 µM [rising, full curve, poor fit]	inconclusive: 37.2 µM [cytotoxic, single point]	active: 8.33 µM		inconclusive: 0.001 µM	
CC[C@]1(O)C[C@H]2CN(CCc3c([nH]c4ccccc34)[C@@](C(=O)OC)(c3cc4c(cc3OC)N(C=O)[C@H]3[C@@](O)(C(=O)OC)[C@H](OC(C)=O)[C@]5(CC)C=CCN6CC[C@]43[C@@H]65)C2)C1	active: 0.0148 µM			inconclusive: 0.148 µM [cytotoxic, full curve]	inconclusive: 0.0372 µM [cytotoxic, full curve]		active: 0.059 µM	
CCOC(=O)N1CCN([N+]([O-])=NOc2ccc([N+](=O)[O-])cc2[N+](=O)[O-])CC1	active: 1.18 µM		active: 3.72 µM	active: 2.35 µM	active: 1.87 µM	active: 1.32 µM		inconclusive: 9.35 µM [cytotoxic, full curve, poor fit]
CC=CC[C@@H](C)C(=O)[C@H]1C(=O)N[C@@H](C(C)C)C(=O)N(C)CC(=O)N(C)[C@@H](CC(C)C)C(=O)N[C@@H](C(C)C)C(=O)N(C)[C@@H](CC(C)C)C(=O)N[C@@H](C)C(=O)N[C@H](C)C(=O)N(C)[C@@H](CC(C)C)C(=O)N(C)[C@@H](CC(C)C)C(=O)N(C)[C@@H](C(C)C)C(=O)N1C		inconclusive: 18.7 µM [cytotoxic, single point]		inconclusive: 1.48 µM [cytotoxic, full curve, poor fit]		inconclusive: 20.9 µM [cytotoxic, partial curve, poor fit]		inconclusive: 37.2 µM [rising, single point]
CC(C)C(=O)Nc1ncc(-c2cc(C(F)F)nn2-c2c(Cl)cccc2Cl)s1	inconclusive: 37.2 µM [cytotoxic, partial curve, poor fit]		inconclusive: 23.5 µM [cytotoxic, partial curve, poor fit]	inconclusive: 5.26 µM [cytotoxic, full curve, poor fit]	inconclusive: 26.4 µM [cytotoxic, single point]	inconclusive: 33.2 µM [cytotoxic, single point]	inconclusive: 33.2 µM [cytotoxic, single point]	
O=C(C=Cc1ccc(O)cc1)c1ccc(O)cc1O	inconclusive: 18.7 µM [cytotoxic, partial curve, poor fit]		active: 5.9 µM	active: 14.8 µM			inconclusive: 29.6 µM [cytotoxic, single point]	inconclusive: 5.9 µM [cytotoxic, partial curve, poor fit]
Cc1c(NC(=O)c2ccc(C(C)(C)C)cc2)cccc1-c1cn(C)c(=O)c(Nc2ccc(C(=O)N3CCOCC3)cc2)n1	inconclusive: 16.6 µM [cytotoxic, partial curve, poor fit]						inconclusive: 23.5 µM [cytotoxic, partial curve, poor fit]	inconclusive: 37.2 µM [rising, partial curve]

Fetched by structure from the entries so far (2):
Structure (SMILES)	Potency [1]	Potency [2]	Potency [3]	Potency [4]	Potency [5]	Potency [6]	Potency [7]	Potency [8]
CCOC(=O)N1CCN([N+]([O-])=NOc2ccc([N+](=O)[O-])cc2[N+](=O)[O-])CC1	active: 1.18 µM		active: 3.72 µM	active: 2.35 µM	active: 1.87 µM	active: 1.32 µM		inconclusive: 9.35 µM [cytotoxic, full curve, poor fit]
Oc1ccc(C2CCN(c3ccnc4ccccc34)CC2)cc1O				inconclusive: 20.9 µM [cytotoxic, partial curve, poor fit]	inconclusive: 8.33 µM [cytotoxic, partial curve]	active: 18.7 µM		active: 23.5 µM
